Values scatter widely in this assay.
B1: human tRNA-Pro; a variant is named by its letters at N, in order (parent)
chain: GGCTCGTTGGTCTAGNGGTATGATTCTCGCTTAGGGTGCGAGAGGTCCCGGGTTCNNATCCCGGACGAGCCC

Legend:
[1] = variants of: B1; experiment: tRNA Pol-III promoter activity, log2 (circRNA frequency / plasmid DNA frequency) (log2 ratio); higher = stronger promoter activity; conditions: HEK293T; construct: no Pol-II promoter ((-)CMV library)
[2] = variants of: B1; experiment: tRNA 3' processing efficiency (processed reads / all reads, maximum-likelihood estimate) (fraction); higher = more efficient 3' processing; conditions: HEK293T; construct: no Pol-II promoter ((-)CMV library)
[3] = variants of: B1; experiment: tRNA 5' processing efficiency (processed reads / all reads, maximum-likelihood estimate) (fraction); higher = more efficient 5' processing; conditions: HEK293T; construct: CMV Pol-II promoter ((+)CMV library, decapped)

| Variant | tRNA Pol-III promoter activity (log2) [1] | tRNA 3' processing efficiency [2] | tRNA 5' processing efficiency [3] |
| --- | --- | --- | --- |
| GGCTCGTTGGTCTAGGGGCATGATTCTCGCTTAGGGTGCGAGAGGTCCCGGGTTGACATCCCGGACGAGCCC [GAC T19C C55G] | 5.96 | 0.84 |  |
| GGCTCGTTGGTCTAGGGGCATGATTCTCGCTTAGGGTGCGAGAGGTCCCGGGTTCACGTCCCGGACGAGCCC [GAC T19C A58G] | 4.84 | 0.29 |  |
| GGCTCGTTGGTCTAGGGGTATGATTCTCGCTTAGGGTGCGAGAGGTCCCGGGTCCACATCCCGGACGAGCCC [GAC T54C] | 1.89 | 0.07 | 0.67 |
| GGCTCGTTGGTCTAGAGGAATGATTCTCGCTTAGGGTGCGAGAGGTCCCGGGTTCACATCCCGGACGAGCCC [AAC T19A] | 3.9 | 0.4 |  |
| GGCTCGTTGGTCTAGCGGTATGATTCTCGCTTAGGGTGCGAGAGGTCCCGGGTTCACAACCCGGACGAGCCC [CAC T59A] | 5.36 | 0.2 |  |
| GGCTCGTGGGTCTAGGGGTATGATTCTCGCTTAGGGTGCGAGAGGTCCCGGGCTCACCGCCCGGACGAGCCC [GAC T8G T53C A58C T59G] | 4.03 | 0.6 |  |
| GGCTCGTTGGTCTAGGGGGATGATTCTCGCTTAGGGTGCGAGAGGTCCCGGGTTCACATCCCGGACGAGCCC [GAC T19G] | 3.5 | 0.41 |  |
| GGCTCGTTGGTCTAGGGGCATGATTCTCGCTTAGGGTGCGAGAGGTCCCGGGTTCACATCCCGGACGAGCCC [GAC T19C] | 1.06 | 0.38 |  |
| GGCTCGTTGGTCTAGGGGAATGATTCTCGCTTAGGGTGCGAGAGGTCCCGGGTTCACATCCCGGACGAGCCC [GAC T19A] | 0.625 | 0.34 |  |
| GGCTCGTTGGTCTAGTGGGATGATTCTCGCTTAGGGTGCGAGAGGTCCCGGGTTCACATCCCGGACGAGCCC [TAC T19G] | 3.64 | 0.32 |  |
| GGCTCGTTGGTCTAGTGGCATGATTCTCGCTTAGGGTGCGAGAGGTCCCGGGTTCACATCCCGGACGAGCCC [TAC T19C] | 5.36 | 0.4 |  |
| GGCTCGTTGGTCTAGGGGATTGATTCTCGCTTAGGGTGCGAGAGGTCCCGGGTTCACATCCCGGACGAGCCC [GAC T19A A20T] | 3.45 | 0.25 |  |
| GGCTCGTTGGTCTAGGGGACTGATTCTCGCTTAGGGTGCGAGAGGTCCCGGGTTCACATCCCGGACGAGCCC [GAC T19A A20C] | 5.15 | 0.62 |  |
| GGCTCGTTGGTCTAGGGGAGTGATTCTCGCTTAGGGTGCGAGAGGTCCCGGGTTCACTTCCCGGACGAGCCC [GAC T19A A20G A58T] | 6.03 | 0.13 |  |
| GGCTCGTTGGTCTAGGGGAATGATTCTCGCTTAGGGTGCGAGAGGTCCCGGGTTCACGTCCCGGACGAGCCC [GAC T19A A58G] | 3.51 | 0.17 |  |
| GGCTCGTTGGTCTAGGGGAATGATTCTCGCTTAGGGTGCGAGAGGTCCCGGGTTCACTTCCCGGACGAGCCC [GAC T19A A58T] | 4.49 | 0.41 |  |
| GGCTCGTTGGTCTAGGGGAATGATTCTCGCTTAGGGTGCGAGAGGTCCCGGGTTCACAGCCCGGACGAGCCC [GAC T19A T59G] | 5.93 | 0.25 |  |
| GGCTCGTTGGTCTAGGGGGTTGATTCTCGCTTAGGGTGCGAGAGGTCCCGGGTTCACATCCCGGACGAGCCC [GAC T19G A20T] | 2.55 | 0.2 |  |

| Variant | tRNA Pol-III promoter activity (log2) [1] | tRNA 3' processing efficiency [2] | tRNA 5' processing efficiency [3] |
| --- | --- | --- | --- |
| GGCTCGTTGGTCTAGGGGGATGATTCTCGCTTAGGGTGCGAGAGGTCCCGGGTTCACACCCCGGACGAGCCC [GAC T19G T59C] | 3.94 | 0.25 |  |
| GGCTCGTGGGTCTACGGGGATGATTCTCGCTTAGGGTGCGAGAGGTCCCGGGTTCACATCCCGGACGAGCCC [GAC T8G G15C T19G] | 7.84 | 0.2 |  |
| GGCTCGTTGGTCTAGTGGTATGATTCTCGCTTAGGGTGCGAGAGGTCCCGGGGTCACATCCCGGACGAGCCC [TAC T53G] | 3.36 | 0.67 |  |
| GGCTCGTTGGTCTAGTGGTATGATTCTCGCTTAGGGTGCGAGAGGTCCCGGGATCACATCCCGGACGAGCCC [TAC T53A] | 3.94 | 0.67 |  |
| GGCTCGTTGGTCTAGGGGAATGATTCTCGCTTAGGGTGCGAGAGGTCCCGGGATCACATCCCGGACGAGCCC [GAC T19A T53A] | 4.05 | 0.31 |  |
| GGCTCGTTGGTCTAGCGGCATGATTCTCGCTTAGGGTGCGAGAGGTCCCGGGATCACATCCCGGACGAGCCC [CAC T19C T53A] | 4.68 | 0.6 |  |
| GGCTCGTTGGTCTAGGGGTATGATTCTCGCTTAGGGTGCGAGAGGTCCCGGGTTCACAACCCGGACGAGCCC [GAC T59A] | 1.15 | 0.45 |  |
| GGCTCGTTGGTCTAGGGGTATGATTCTCGCTTAGGGTGCGAGAGGTCCCGGGTTCACACCCCGGACGAGCCC [GAC T59C] | 0.262 | 0.17 |  |
| GGCTCGTTGGTCTAGGGGTATGATTCTCGCTTAGGGTGCGAGAGGTCCCGGGTTCACAGCCCGGACGAGCCC [GAC T59G] | 1.8 | 0.23 | 0.25 |
| GGCTCGTTGGTCTAGGGGTATGATTCTCGCTTAGGGTGCGAGAGGTCCCGGGTTCAGATCCCGGACGAGCCC [GAG] | 2.22 | 0.35 | 0.15 |
| GGCTCGTTGGTCTAGGGGTATGATTCTCGCTTAGGGTGCGAGAGGTCCCGGGTACACAGCCCGGACGAGCCC [GAC T54A T59G] | 4.26 | 0.71 |  |
| GGCTCGTGGGTCTAATGGTATGATTCTCGCTTAGGGTGCGAGAGGTCCCGGGTTCACATCCCGGACGAGCCC [TAC T8G G15A] | 4.93 | 0.25 |  |
| GGCTCGTTGGTCTAGCGGTATGATTCTCGCTTAGGGTGCGAGAGGTCCCGGGTTCAGATCCCGGACGAGCCC [CAG] | 2.32 | 0.36 | 0.14 |
| GGCTCGTTGGTCTAGCGGAATGATTCTCGCTTAGGGTGCGAGAGGTCCCGGGTTCACATCCCGGACGAGCCC [CAC T19A] | 2.81 | 0.5 |  |
| GGCTCGTTGGTCTAGCGGCATGATTCTCGCTTAGGGTGCGAGAGGTCCCGGGTTCACATCCCGGACGAGCCC [CAC T19C] | 4.36 | 0.38 |  |
| GGCTCGTTGGTCTAGCGGGATGATTCTCGCTTAGGGTGCGAGAGGTCCCGGGTTCACATCCCGGACGAGCCC [CAC T19G] | 5.32 | 0.15 | 0.25 |
| GGCTCGTTGGTCTAGAGGTATGATTCTCGCTTAGGGTGCGAGAGGTCCCGGGTTCAGATCCCGGACGAGCCC [AAG] | 2.89 | 0.45 | 0.25 |

A few values from the list.
Entry for GGCTCGTTGGTCTAGGGGAATGATTCTCGCTTAGGGTGCGAGAGGTCCCGGGTTCACATCCCGGACGAGCCC [GAC T19A] under tRNA 3' processing efficiency [2]: 0.34
Entry for GGCTCGTTGGTCTAGCGGCATGATTCTCGCTTAGGGTGCGAGAGGTCCCGGGATCACATCCCGGACGAGCCC [CAC T19C T53A] under tRNA Pol-III promoter activity (log2) [1]: 4.68

Source: the supplement of paper PMC6445147
